Whole data set: some 33,000 sequences, median “E-score (-0.5 to 0.5)” near -0.015, cut for the highest 2% near 0.3. This is one part of the list.
Target: T1, Abf1 (UniProt P14164)
T1 sequence: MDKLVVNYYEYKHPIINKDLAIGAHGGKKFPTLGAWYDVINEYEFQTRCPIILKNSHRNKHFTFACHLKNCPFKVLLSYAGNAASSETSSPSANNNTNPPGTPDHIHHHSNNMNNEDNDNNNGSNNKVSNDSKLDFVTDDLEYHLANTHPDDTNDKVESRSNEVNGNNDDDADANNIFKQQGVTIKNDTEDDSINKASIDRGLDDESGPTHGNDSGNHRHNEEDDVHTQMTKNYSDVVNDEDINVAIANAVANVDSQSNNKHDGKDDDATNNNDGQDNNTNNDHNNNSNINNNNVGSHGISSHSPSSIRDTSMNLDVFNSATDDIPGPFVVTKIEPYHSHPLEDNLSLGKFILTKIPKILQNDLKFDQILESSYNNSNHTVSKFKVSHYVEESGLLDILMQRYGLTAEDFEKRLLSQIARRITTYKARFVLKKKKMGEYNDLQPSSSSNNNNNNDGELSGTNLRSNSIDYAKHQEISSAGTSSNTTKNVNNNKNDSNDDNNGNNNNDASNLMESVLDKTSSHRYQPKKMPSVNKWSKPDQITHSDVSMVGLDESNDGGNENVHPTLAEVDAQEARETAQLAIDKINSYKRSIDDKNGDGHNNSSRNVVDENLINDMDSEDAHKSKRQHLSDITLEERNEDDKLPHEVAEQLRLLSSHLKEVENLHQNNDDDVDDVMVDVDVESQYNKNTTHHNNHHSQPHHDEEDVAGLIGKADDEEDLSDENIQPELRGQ
Experiment: PBM E-score (8-mer binding enrichment) (E-score (-0.5 to 0.5)); higher = stronger / more preferred TF binding
Conditions: protein concentration: 200 nM; construct: GST-full length
How it was run: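 E-scores (a modified Wilcoxon-Mann-Whitney statistic) were assigned by the Universal PBM Analysis Suite to every ungapped eight-base word pooled with its reverse complement. The input came from universal all-10-mer Agilent arrays made double-stranded by primer extension and probed with GST-tagged yeast transcription factors at about 100-200 nM. Fluorescent anti-GST detected bound protein, and masliner normalised the scans.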

Sequence	PBM E-score
ACTATAGA	0.13
CCATACAG	-0.192
ACCCCTGG	-0.235
GAGCCCCA	-0.19
AATTGAAC	-0.0198
AGCGGCAA	-0.0673
CGAGCTTC	0.104
AGCGCGCA	-0.0129
AATCCCTC	-0.154
GCCTATGA	-0.101
ACCATCTA	-0.128
AGTTCAAG	0.221
CATTTGCA	0.105
AAGTTGAA	-0.0148
CCATACTC	-0.198
ATGTCTCG	0.108
AGAACCTA	-0.176
GACGCAAA	-0.0787
GCTGACTA	0.0276
TAATATAA	0.196
GAAGCGCC	-0.011
ACTATGCA	0.171
TAGCTTAA	0.0853
CCCGCCCC	-0.0886
ATCACTAA	0.359

3 entries from above, field by field:
CCATACTC
  PBM E-score = -0.198
ACTATGCA
  PBM E-score = 0.171
ATCACTAA
  PBM E-score = 0.359

Going on with the list:

Sequence	PBM E-score
CCATGCGA	-0.0106
AAGAATCC	0.0253
CTGATCGC	-0.0561
AATGAGTG	0.105
ATGCGGTC	0.0961
ACATCTCG	0.0983
AGGCATTC	-0.299
CCTGCTAG	-0.276
AAGGATGC	-0.213
GAGTACCA	0.0748
AGGTGTAC	-0.093
AGTTCCAT	0.0271
AAACACCT	0.0682
TATCGTGA	0.286
TTAGACAA	0.0757
GGCGTCTA	-0.164
GGTTGTGA	0.0663
AAGATGTG	-0.079
ACGCCCAC	-0.202
GGACTACC	-0.163
TCCAAAGA	0.0107
CTACTGAG	-0.126
CCTCAATA	-0.158
ATTACTGA	-0.0334
ACGCACCG	-0.0403

Sequence	PBM E-score
CGTTGCGA	0.0828
GCGCTGAA	-0.0272
ATGACCTG	0.0895
AAGAAAAA	-0.0775
CAGTTCAA	0.0538
AACCAAAA	-0.00183
ATTTCTAG	0.0967
ACCCAGGA	-0.235
CCCACATA	-0.154
TCTTTGAA	-0.0383
CACTATCA	0.0851
GAACAAAA	0.226
TAGGCTAA	-0.169
GTAGTGAA	0.0467
CCAGCACA	-0.0686
CGCTCCGC	-0.157
AATCTGCA	-0.185
CACAAGTG	-0.156
CACGCGAA	0.0899
AGAGGTAT	0.189
ATGATCGG	0.0902
ACGGTTAA	0.0312
GTGTATGA	0.00583
ATCCTTTA	0.139
ATTTATGA	0.229

Sequence	PBM E-score
GACGTAAC	-0.0819
GTGTAGGA	0.0283
AGATTGAC	0.143
CGTTTGAC	-0.015
AAATTATC	0.264
GAAGGATA	-0.147
AGCAGAAG	-0.199
ACAGGCGC	-0.267
GCGGGTTA	0.00545
TCGTATCA	0.331
GAGCGCAA	-0.171
CCGCGAGA	-0.0337
CGAGTCAC	-0.0274
ATTGGGTC	-0.149
CTAGCTAA	-0.0545
ACCGCTCG	-0.161
GTTGAGTA	0.103
CCCAGAAC	-0.144
AGCGCGAC	-0.0745
ATTTCTAA	0.0446
CCATAACA	0.0579
AGTCTTAA	-0.0694
ATTCGGCA	0.0145
CATCAAGC	0.0311
AGTCCAGC	-0.128

Sequence	PBM E-score
AATCCTAC	-0.0455
CGAGGTTC	-0.0213
AGGTTACC	0.00988
ATGAAACC	-0.052
AACCTTTG	-0.123
GGCCGCCC	-0.352
AAGCGTCA	0.0184
GGTTAACC	-0.23
CGATTCCA	-0.0719
AACATTCC	-0.0913
AGTCCCAA	-0.167
CGGAGTTC	-0.0622
AATTGTGA	0.0987
ACGGGATC	0.111
TCCACCCA	-0.157
GAGAGTCA	-0.0659
TGTGAGAA	-0.167
CTAACCCA	-0.134
CGGCCCCC	-0.209
CTTTAGGA	-0.192
TGTTGAAA	0.0577
GCACTGAA	-0.274
ATGTAGTA	0.229
ATCAGCTC	-0.0763
TAAGTCTA	-0.136

In another format: entries from further up
Sequence,PBM E-score
ATGAAACC,-0.052
AACCTTTG,-0.123
GGCCGCCC,-0.352

(list continues)

Sequence	PBM E-score
ACCATCAT	0.0107
GTTAAATA	0.0863
ATGAGCTA	0.0497
AAGCTGTG	-0.105
GGGATTTA	0.0783
CACGTAAC	-0.0481
AGTATGTG	-0.0696
GCCGCTAC	-0.183
GAACGGCA	0.22
CAGCACGA	0.226
ATGTACAA	0.0303
ACGGTACC	0.213
CTATGCAA	-0.139
CTCCAGTA	-0.0551
ACAATATA	0.097
TAACCAGA	0.101
ACTGCCAT	-0.0294
CGCTCCTC	-0.182
GCACATCC	-0.178
ACCCTACG	0.0801
AGTCATAC	-0.0195
ACCGGGAT	-0.103
CGTTCCGA	0.124
CGTACCCC	0.0746
ACAAAGAT	0.0934

Sequence	PBM E-score
AGGCTGTA	0.0914
ATCCTCTC	-0.102
GGGAGGCA	-0.284
GTCGCAAA	0.0278
AATTCCTA	0.0961
CTAGGCAG	-0.163
ACATTATC	0.198
CGACCAGC	-0.11
ACATGGAA	-0.00293
ACACCGGT	-0.131
GAGTCACA	-0.0473
CCACAACA	-0.261
AGTGGGGA	-0.159
AAGCTCTC	-0.125
TTCCCGAA	-0.02
TCCTACGA	0.347
ACGCTATA	-0.097
AGTTACTC	-0.0211
ATATTTTG	0.174
ACTGTGTA	0.00452
ATGTCTCA	0.141
CCCGTATA	0.289
AAATTGAC	0.0443
CCTTTTAG	-0.16
ATATATAA	0.195

Sequence	PBM E-score
ATACAAAA	0.0848
GCACGTAC	-0.056
ACACTTTC	0.0546
ACTCTGCT	-0.102
CCACACTC	-0.0363
ATGCGAGC	-0.174
CCCCCTCA	-0.349
CATAGGGA	-0.043
GCTGTGTA	-0.0689
CTCTAAGC	-0.141
ACAAAGAC	0.0139
CCGAATAG	-0.0809
ACGTGGAT	0.172
ACCCCAAC	0.0502
ACGCAGTG	-0.0566
ACCTAGGC	-0.251
CATCAGTC	-0.0698
GGTAGTAA	-0.13
AAGGTCGA	-0.00242
GGTCGAAC	-0.0647
CACCGTCA	0.245
AGATTGCG	-0.178
GTATCTCA	0.155
GCGCGCTA	0.0816
AGATGACA	0.316

Sequence	PBM E-score
TCATCTAA	0.169
GGAGAAAA	-0.0587
CTGGGAAA	0.0449
AGTCATAA	-0.0115
CAGAGCTG	-0.3
AATCAGAC	-0.072
CATCCACG	0.188
CCGGGGCG	-0.206
CAATCGTG	0.122
GCCATGCA	0.015
ATTCTTTA	-0.0415
GCCGTAAA	0.126
CCACAACG	-0.168
TATCCGGA	0.06
GTCTAGTA	0.163
ATGGCTGC	-0.0954
CCTAATAC	0.0651
ACTAGTTA	0.104
ACGGAACG	0.29
TCAGAAGA	0.0707
CGCAAACA	0.0853
CTTATAAA	0.0958
ACGACCGC	0.041
CCCCTTGC	-0.282
CAGTGGCC	-0.181

Some values from the results shown.
CCTAATAC | PBM E-score: 0.0651
CCGGGGCG | PBM E-score: -0.206

More results.

Sequence	PBM E-score
CAAATAGC	-0.0676
CTCCTGTA	-0.0785
CGGGCAAC	-0.152
GTACCACA	0.0854
CATAATAG	0.0952
ACGCCTGG	-0.0398
GTTTTTTA	0.0474
CCATATCA	0.163
CGACCCGC	0.0246
AGCTTCAT	-0.116
AGTCTTTC	-0.183
CCTCGGGA	-0.124
AACTACTC	0.0314
CACTCGGC	-0.0263
GCTTCTCA	-0.069
CCGGTAGG	-0.195
AAGCGAAT	0.194
AACTTTAC	0.067
ATGCACCA	0.023
CGCCTTTC	-0.16
CGCGTCCA	-0.048
GGATACCC	0.00814
ATAAATGA	0.288
AATCCCAT	-0.114
GATCCCGC	-0.0283

Sequence	PBM E-score
CGAGATCG	0.21
AGACGAAA	0.296
CCAGCGCC	-0.326
TAATTGAA	-0.00248
CCGAGTCC	-0.0682
AAGATGCA	0.0604
AAAATTAA	0.121
CTTTCACA	0.116
AACAAGAG	-0.249
CATGCCAC	-0.191
GCGGCCTA	-0.227
CTACTCAG	-0.124
AGCGGTCC	-0.115
AATGCCTG	-0.0437
TACGTGAA	0.181
CTAAGGGA	0.106
ACAAGTCT	0.135
TATCGACA	0.0331
ATAAGTTC	0.0514
CCCGACGG	0.105
TATCGCCA	0.186
CATCACAA	0.0688
AAAGCCGG	0.0367
AGACATAT	0.132
CACTCGTC	0.203

Sequence	PBM E-score
GAACTACA	-0.0916
GTGATCCA	0.132
AGATAGTA	0.134
GGGAGCCA	-0.334
CGACATCA	0.315
AGCGGCGC	-0.309
GCCCTTAA	-0.0919
GAAGGGTC	-0.227
CAGTGCCA	-0.127
ATCTAGAT	-0.0888
AGGTTTGG	-0.0175
ACAAGTCC	-0.0241
GAATAACA	-0.0615
CTCTTAGC	-0.185
ATCAGTCA	0.117
ATGAACTC	-0.088
GTGTACAA	0.195
GACCACTA	-0.0806
AGGAGAAA	-0.174
CTCTATGA	-0.0133
AAATTGCG	-0.00473
AATAGACA	0.00762
GGCTTTAC	-0.225
ACCGGAGT	-0.128
ACGCTCCC	-0.0883

Sequence	PBM E-score
AAGCCATA	0.0416
TCTTTTCA	0.174
GAACGGTC	0.0634
AACTGACA	-0.103
GAAGCTTA	-0.0251
AATATATC	0.139
ATTACCAC	0.0192
AGGAAAAT	-0.00369
GATTAAGA	0.174
AATACCAA	0.148
GGATCAGA	-0.158
AACTAATC	-0.05
CTATGTAC	0.0598
CGGCACCA	0.0755
GAGACGGC	0.179
GGAAGCTA	-0.104
CTGGTTGA	-0.23
CCAATAAA	-0.0419
GACCTGTA	-0.0517
AGTAGCGA	0.125
AGTCCGGA	-0.0513
AAAATAAT	0.223
CACCACGA	0.202
AGACACAG	-0.208
ACGGCATG	0.186

Sequence	PBM E-score
CAGTATGA	0.102
CGGTATGC	0.104
AGACACAT	-0.174
CCCCGTCG	0.184
CTCGATAA	0.0643
AAAAGAAC	-0.0798
ATAAAGGA	-0.178
ACATTTGG	-0.0911
GTAGCTGA	-0.287
CGAAGGTA	0.0175
GCACAGAC	0.0598
ATGTGACG	0.103
ACGCAGAC	-0.0327
ATGGGTGG	-0.196
ACCGTTCA	0.179
ATTATTCC	0.116
ACTCACAT	0.0317
GTGCAAGA	0.256
CACAGTAA	0.14
